Data reported in PubChem BioAssay AID328 (DTP/NCI, 2004).
The list is a part of this screen's results and no random one: it gathers tests that were run many times, whatever their T/C, doses with no T/C, and many T/C values between a quarter and a half above the control. Other doses and runs of a compound stand elsewhere. T/C: endpoint of the treated group in % of that of the vehicle group. Some doses have a count of surviving animals in place of a T/C: the source holds a T/C of zero for them, seemingly a mark for toxic or unscored doses. Some survivor counts are full or nearly so, which does not show that the dose was tolerated: survival well below the control is almost never listed, so the zero probably covers shortened survival too. Counts of survivors are from the toxicity check (mostly the fifth day) where no day follows; animals may have died later. Schedule codes are those of the source, read here as Q, the interval in days (D) or hours (H), X, the number of doses. Some molecules as drawn cover several salts, stereoisomers or complexes of the source; a dose is that of the sample tested. Where survival is the endpoint, this PubChem deposit counts one and a half times the control or more as active, and values a quarter to a half above the control carry no call in these data; other NCI protocols may use other cut-offs. Some entries were tested several times; their values stand side by side, smallest first. Some T/C values are followed by the survivors on the day toxicity was checked, most often the fifth; where none is given, no animal had died by that day. Positions of bridges follow the written chain, without caps; N, C: chain ends. Non-standard residues stand in square brackets, D forms with d. Residues, ends and D or L forms follow the SMILES beside them. Aib = CC(C)(N)C(=O)O

Tested on: BDF1 mice, P388 leukemia ip, median survival T/C
Assay: NCI In Vivo Anticancer Drug Screen. Data for tumor model P388 Leukemia (intraperitoneal) in B6D2F1 (BDF1) mice
Conditions: T/C endpoint: median survival time, higher T/C = longer survival
In short: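 Read-out is survival of treated animals expressed relative to the vehicle group, as a T/C ratio.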

[1] = dose: 25.0 mg/kg/injection, schedule: Q04DX003 (ip), vehicle: saline
[2] = dose: 50.0 mg/kg/injection, schedule: Q04DX003 (ip), vehicle: saline
[3] = dose: 100.0 mg/kg/injection, schedule: Q01DX009 (ip), vehicle: saline
[4] = dose: 3.0 mg/kg/injection, schedule: Q01DX009 (ip), vehicle: water
[5] = dose: 12.5 mg/kg/injection, schedule: Q01DX009 (ip), vehicle: saline
[6] = dose: 50.0 mg/kg/injection, schedule: Q01DX009 (ip), vehicle: saline

`Nc1nc(=S)c2[nH]c(N=Nc3ccc(S(=O)(=O)O)cc3)nc2[nH]1` was tested, and the T/C (dose: 6.25 mg/kg/injection, schedule: Q04DX003 (ip), vehicle: saline) was 125 % of control, the T/C (dose: 12.5 mg/kg/injection, schedule: Q04DX003 (ip), vehicle: saline) was 131 % of control and the T/C [1] was 141 % of control. For the same molecule, the T/C [2] was 131 % of control and the survivor count (dose: 100.0 mg/kg/injection, schedule: Q04DX003 (ip), vehicle: saline) was 5 of 6.
In the case of `Cc1cc(N(c2c(Cl)c(Cl)c(NS(=O)(=O)c3ccccc3)c(Cl)c2Cl)S(=O)(=O)c2ccccc2)cc(C)c1N`, the survivor count (dose: 100.0 mg/kg/injection, schedule: Q01DX009 (ip), vehicle: Klucel (hydroxypropylcellulose) (HPC)) is reported as 6 of 6.
In the case of `CCOC(=O)C(Br)C(=O)OCC`, the survivor count (dose: 75.0 mg/kg/injection, schedule: Q04DX003 (ip), vehicle: saline) is reported as 5 of 6, the survivor count (dose: 115.0 mg/kg/injection, schedule: Q04DX003 (ip), vehicle: saline) is reported as 1 of 6 and the survivor count (dose: 170.0 mg/kg/injection, schedule: Q04DX003 (ip), vehicle: saline) is reported as 0 of 6.
For `[N-]=[N+]=[N-]`, the survivor count (dose: 10.0 mg/kg/injection, schedule: Q01DX009 (ip), vehicle: saline) was 4 of 6 and the survivor count (dose: 20.0 mg/kg/injection, schedule: Q04DX003 (ip), vehicle: saline) was 6 of 6.
For `CC1(C)CCC(C)(C)c2c1ccc(O)c2Sc1c(O)ccc2c1C(C)(C)CCC2(C)C`, the T/C (dose: 400.0 mg/kg/injection, schedule: Q01DX009 (ip), vehicle: saline with Tween-80) was 125 % of control.
`O=C1c2cccc(O)c2C(=O)c2c(O)cccc21` was tested, and the survivor count (dose: 200.0 mg/kg/injection, schedule: Q04DX003 (ip), vehicle: saline) was 6 of 6.
`COC1/C=C/OC2(C)Oc3c(C)c(O)c4c(O)c(c(/C=N/N5CCN(Cc6ccccc6)CC5)c(O)c4c3C2=O)NC(=O)C(C)=C/C=C/C(C)C(O)C(C)C(O)C(C)C(OC(C)=O)C1C` (configuration not stated) was tested, and the survivor count [3] was 5 of 6.
`CC[C@@]1(O)C[C@H](OC2CC(N(C)C)C(OC3CC(O)C(OC4CCC(=O)C(C)O4)C(C)O3)C(C)O2)c2c(cc3c(c2O)C(=O)c2c(O)ccc(O)c2C3=O)[C@H]1C(=O)OC` (some centres not stated) was tested, and the T/C (dose: 0.25 mg/kg/injection, schedule: Q01DX009 (ip), vehicle: saline) was 129 % of control, the T/C (dose: 0.5 mg/kg/injection, schedule: Q01DX009 (ip), vehicle: saline) was 137 % of control and the T/C (dose: 0.65 mg/kg/injection, schedule: Q01DX009 (ip), vehicle: water) was 132 % of control. For the same molecule, the T/C (dose: 1.73 mg/kg/injection, schedule: Q04DX003 (ip), vehicle: water) was 150, 155, 163, 167 % of control, the T/C (dose: 2.5 mg/kg/injection, schedule: Q04DX003 (ip), vehicle: water) was 148 % of control and the T/C (dose: 2.88 mg/kg/injection, schedule: Q04DX003 (ip), vehicle: water, evaluated on day 9) was 143 % of control. The T/C (dose: 2.88 mg/kg/injection, schedule: Q04DX003 (ip), vehicle: water, evaluated on day 60) was 166, 175, 192, 206 % of control, the T/C [4] was 130 % of control and the survivor count [4] was 8 of 8. For the same molecule, the survivor count (dose: 4.0 mg/kg/injection, schedule: Q01DX003 (ip), vehicle: saline) was 6 of 6, the survivor count (dose: 4.0 mg/kg/injection, schedule: Q01DX009 (ip), vehicle: water) was 8 of 8 and the T/C (dose: 4.0 mg/kg/injection, schedule: Q04DX003 (ip), vehicle: water) was 132 % of control. The T/C (dose: 4.8 mg/kg/injection, schedule: Q04DX003 (ip), vehicle: water, evaluated on day 9) was 210 % of control, the T/C (dose: 4.8 mg/kg/injection, schedule: Q04DX003 (ip), vehicle: water, evaluated on day 60) was 177, 195, 223, 265 % of control and the survivor count (dose: 6.0 mg/kg/injection, schedule: Q01DX010 (ip), vehicle: saline) was 4 of 6. The T/C (dose: 6.33 mg/kg/injection, schedule: Q01DX001 (ip), vehicle: water, evaluated on day 7) was 127 % of control, the T/C (dose: 6.33 mg/kg/injection, schedule: Q01DX001 (ip), vehicle: water, evaluated on day 60) was 127 % of control and the survivor count (dose: 8.0 mg/kg/injection, schedule: Q01DX009 (ip), vehicle: water) was 4 of 8. The survivor count (dose: 8.0 mg/kg/injection, schedule: Q04DX003 (ip), vehicle: other) was 8 of 8, the T/C (dose: 8.0 mg/kg/injection, schedule: Q04DX003 (ip), vehicle: water, evaluated on day 9) was 170 and 175 % of control and the T/C (dose: 8.0 mg/kg/injection, schedule: Q04DX003 (ip), vehicle: water, evaluated on day 60) was 90, 95, 108, 125 % of control. For the same molecule, the survivor count (dose: 20.0 mg/kg/injection, schedule: Q01DX001 (ip), vehicle: water) was 1 of 8.
For `CC(C)CC1NC(=O)CNC(=O)C(C)(C)NC(=O)C(C(C)C)NC(=O)C(C)(C)NC(=O)C(CCC(N)=O)NC(=O)C(C)NC(=O)C(C)(C)NC(=O)C(C)NC(=O)C(C)(C)NC(=O)C2CCCN2C(=O)CCC(C(=O)NC(CCC(N)=O)C(=O)O)NC(=O)C(C)(C)NC(=O)C(C)(C)NC(=O)C(C(C)C)NC(=O)C2CCCN2C(=O)C(C)(C)NC1=O` (configuration not stated) (P[Aib]A[Aib]AQ[Aib]V[Aib]GL[Aib]PV[Aib][Aib]EQ-OH; lactam N-17; configuration not given here), the survivor count (dose: 5.0 mg/kg/injection, schedule: Q01DX009 (ip), vehicle: water) was 3 of 6 and the survivor count (dose: 10.0 mg/kg/injection, schedule: Q01DX009 (ip), vehicle: water) was 0 of 6.
`Cc1cccc(N=P(c2ccccc2)(c2ccccc2)c2ccccc2)c1` was tested, and the T/C (dose: 200.0 mg/kg/injection, schedule: Q01DX009 (ip), vehicle: Klucel (hydroxypropylcellulose) (HPC)) was 131 % of control [5 of 6 alive] and the survivor count (dose: 300.0 mg/kg/injection, schedule: Q01DX009 (ip), vehicle: Klucel (hydroxypropylcellulose) (HPC)) was 3 of 6.
`O=C(O)c1ccccc1C(=O)Nc1cc(Cl)ccc1Cl` was tested, and the survivor count (dose: 200.0 mg/kg/injection, schedule: Q04DX003 (ip), vehicle: Klucel (hydroxypropylcellulose) (HPC)) was 6 of 6.
For `NC(=O)C1(c2ccccc2)CCN(Cc2ccccc2)CC1`, the survivor count (dose: 200.0 mg/kg/injection, schedule: Q01DX009 (ip), vehicle: saline with Tween-80) was 4 of 6 and the survivor count (dose: 200.0 mg/kg/injection, schedule: Q04DX003 (ip), vehicle: saline with Tween-80) was 4 of 6.
With `CC(Br)C(=O)NCC(=O)NCC(=O)O` (configuration not stated) the survivor count (dose: 400.0 mg/kg/injection, schedule: Q01DX009 (ip), vehicle: saline) was 6 of 6.
`Cc1cc(C(C)(C)CC(C)(C)C)ccc1O` was tested, and the T/C (dose: 200.0 mg/kg/injection, schedule: Q01DX009 (sc), vehicle: olive oil, sesame oil, peanut oil) was 130 % of control.
For `C1CN2CCN1CC2.[Cl][Ni+][Cl]`, the T/C [5] was 126 % of control, the survivor count [5] was 6 of 6 and the survivor count (dose: 20.0 mg/kg/injection, schedule: Q01DX009 (ip), vehicle: saline) was 6 of 6. The survivor count (dose: 25.0 mg/kg/injection, schedule: Q01DX009 (ip), vehicle: saline) was 5 of 6.
In the case of `NC(=S)NNC(=O)C(Cc1ccccc1)NC(=O)OCc1ccccc1` (configuration not stated), the survivor count (dose: 50.0 mg/kg/injection, schedule: Q01DX009 (ip), vehicle: saline with Tween-80) is reported as 5 of 6.
For `CO[C@H]1C[C@H](O[C@H]2CC[C@]3(C=O)[C@H]4CC[C@]5(C)[C@@H](C6=CC(=O)OC6)CC[C@]5(O)[C@@H]4CC[C@]3(O)C2)O[C@H](C)[C@H]1O[C@@H]1O[C@H](CO[C@@H]2O[C@H](CO)[C@@H](O)[C@H](O)[C@H]2O)[C@@H](O)[C@H](O)[C@H]1O`, the survivor count (dose: 2.0 mg/kg/injection, schedule: Q01DX010 (ip), vehicle: saline) was 3 of 6.
In the case of `Cc1cccnc1NC(=O)/C=C/C(=O)O`, the survivor count [1] is reported as 6 of 6, the survivor count [6] is reported as 6 of 6 and the survivor count [2] is reported as 6 of 6.
In the case of `CCCNc1ncnc2c1cnn2C`, the survivor count [6] is reported as 6 of 6, the survivor count [3] is reported as 6 of 6 and the survivor count (dose: 200.0 mg/kg/injection, schedule: Q01DX009 (ip), vehicle: saline) is reported as 0 of 6. The survivor count (dose: 400.0 mg/kg/injection, schedule: Q04DX003 (ip), vehicle: saline) was 1 of 6.
For `CCCCCCCCCCCCCCCCCC(=O)[O][Hg][c]1ccccc1`, the survivor count (dose: 20.0 mg/kg/injection, schedule: Q01DX009 (ip), vehicle: other) was 1 of 6, the survivor count (dose: 22.0 mg/kg/injection, schedule: Q01DX001 (ip), vehicle: Klucel (hydroxypropylcellulose) (HPC)) was 3 of 6 and the survivor count (dose: 35.0 mg/kg/injection, schedule: Q04DX003 (ip), vehicle: Klucel (hydroxypropylcellulose) (HPC)) was 1 of 6. The survivor count (dose: 40.0 mg/kg/injection, schedule: Q01DX009 (ip), vehicle: other) was 0 of 6.
